Percent effect of library compounds

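Assay of Toxoplasma gondii numbers, read through their beta-galactosidase reporter with a colour substrate. Tested at 50 µM. Higher reads as fewer parasites (inferred from which compounds were picked for retests). About 18,000 compounds were tested under these conditions; 0.94% (about 170) showed 50% or more at least once.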

The filed quantity is “Percent Effect” (%).
How 0% and 100% were set is not recorded. Most values in the screen are low, and negative values occur.
The compounds are a random part of those screened.

SMILES: CC(=O)c1ccc(OCC(O)Cn2ccnc2)cc1 (configuration not stated)
effect: 57.01%

SMILES: CN(Cc1ccccc1)CC(O)CN1CCOCC1 (configuration not stated)
effect: 18.6%

SMILES: Cn1c(=O)ccn(CC(=O)Nc2ncccc2O)c1=O
effect: -11.98%

SMILES: Cn1cnnc1CN1CCC(C2CCOCC2)CC1
effect: -6.388%

SMILES: NC(=O)NCC1CCN(Cc2ccccc2)C1 (configuration not stated)
effect: -27.4%

SMILES: CC(C)C(CN)N1CCN(C)CC1 (configuration not stated)
effect: 18.88%

SMILES: O=C(c1ccc2cccc(F)c2n1)N1CCSCC1
effect: -0.586%

SMILES: COc1ccc(CNCc2ccc(C(N)=O)cc2)cc1
effect: -15.7%

SMILES: CC(=O)N(C)c1ccccc1C(=O)NC1CCCCC1
effect: -15.46%

SMILES: NCC1CCN(CCc2ccccc2)C1 (configuration not stated)
effect: 9.723%

SMILES: CN(CC1CCCCN1C)C(=O)c1ccc[nH]1 (configuration not stated)
effect: -0.9755%

SMILES: NC(=O)c1ccccc1CO
effect: 12.16%

SMILES: NCc1c(O)ccc2ccccc12
effect: 5.421%

SMILES: OC[C@@H]1CNC[C@H]1C1CCN(C2CNC2)CC1
effect: 1.082%

SMILES: Cc1noc(C)c1CN1CCNC(=O)C1c1cccs1 (configuration not stated)
effect: 1.427%

SMILES: CC(=O)NC1(c2nc(C)cs2)CCNC1 (configuration not stated)
effect: -12.26%

SMILES: NCC1(N2CCN(c3ccccc3)CC2)CCOCC1
effect: 2.236%

SMILES: CC(C)CNC(=O)C1CCCO1 (configuration not stated)
effect: -5.196%

SMILES: COc1cc(CCN)cc(OC)c1O
effect: -9.476%

SMILES: N#Cc1cnc(N2CCC[C@@H]2CO)cn1
effect: -3.028%

SMILES: CC(C)NC(=O)Cn1c(=O)oc2ccc(Cl)cc21
effect: 6.21%

SMILES: CN1c2ccccc2NS1(=O)=O
effect: -12.03%

SMILES: CNC(=O)COc1ccccc1OC
effect: -8.236%

SMILES: CNC(=O)CCN1CCN(c2ccc(F)cc2Cl)CC1
effect: -26.84%

SMILES: CC1CN(C(=O)Cc2ccsc2)CCO1 (configuration not stated)
effect: -3.289%

SMILES: CC(=O)N1CCN(CCC(=O)Nc2cc(C)on2)CC1
effect: 3.286%

SMILES: COC(=O)[C@@H]1C[C@@H](O)CN1C(C)Cc1ccsc1 (some centres not stated)
effect: 19.98%

SMILES: O=C(CC1CCCCO1)Nc1cnccn1 (configuration not stated)
effect: -7.075%

SMILES: Cc1cccc(-n2cc(CN)cn2)c1
effect: -0.5443%

SMILES: Nc1nc(CCCNC(=O)c2n[nH]c3c2CCC3)cs1
effect: 18.95%

SMILES: CNCc1ccc(C(=O)NC)o1
effect: -10.15%

SMILES: COC(C)C(=O)NCCCN(C)C(C)C (configuration not stated)
effect: 1.135%

SMILES: CC(O)CNc1ncccc1I (configuration not stated)
effect: -0.2181%

SMILES: CCc1nc(C)c(C(=O)NCc2cn3c(n2)SCC3)o1
effect: -19.83%

SMILES: CCNC(=O)CN(c1ccc(Cl)cc1C)S(C)(=O)=O
effect: 0.1452%

SMILES: CC(C)c1nnc(CNC(=O)NCC(F)(F)F)n1C
effect: 6.565%

SMILES: CCC(N)C(=O)NCCN1CCCC1 (configuration not stated)
effect: -2.576%

SMILES: CC(C)Cn1cncc1CN
effect: 8.942%

SMILES: NCC(NS(=O)(=O)CCc1cccs1)C1CC1 (configuration not stated)
effect: 8.601%

SMILES: CCN1CCCN(C(=O)c2c(F)cccc2F)CC1
effect: 9.929%

SMILES: CS(=O)(=O)N(c1ccccc1)C1CSC1
effect: -1.865%

SMILES: CN1CC(NC(=O)NCCc2cccs2)CC1=O (configuration not stated)
effect: -1.615%

SMILES: CC(C)C(O)CCNC(=O)Cc1cccc(O)c1 (configuration not stated)
effect: -8.707%

SMILES: OCCNCC(O)c1ccc(Br)cc1 (configuration not stated)
effect: 1.48%

SMILES: COCCNCc1cn(CCC(N)=O)c2ccccc12
effect: -14.11%

SMILES: Cn1nc(-c2ccsc2)cc1N
effect: 2.002%

SMILES: CCOCCN1CCN(Cc2nnc(OCC)s2)CC1
effect: -7.57%

SMILES: COc1cccc2c(N)c(C)cnc12
effect: 12.3%

SMILES: CN(C)C1(CNC(=O)c2ccccn2)CCCC1
effect: -7.299%

SMILES: O=C(CNc1cccc(C(F)(F)F)c1)N1CCNC1=O
effect: 4.835%

SMILES: CCCNC1CCOCC1
effect: 1.905%

SMILES: CCN(CC1CCCO1)C(=O)NCC(F)F (configuration not stated)
effect: 0.8779%

SMILES: CSCC(C)(O)CNC(=O)CC1=CCCCC1 (configuration not stated)
effect: -12.13%

SMILES: Cc1ncn(CC(=O)N2CC[C@](C)(O)[C@H](C)C2)c1C
effect: 8.637%

SMILES: O=C(CC1CCCNCC1)N1CCCC1 (configuration not stated)
effect: 11.42%

SMILES: CN(C)Cc1ccc(C(=O)N[C@@H]2CCOC[C@H]2O)o1
effect: 2.822%

Repeated from the top, 4 entries:

| SMILES | effect |
|---|---|
| `CC(=O)c1ccc(OCC(O)Cn2ccnc2)cc1` (configuration not stated) | 57.01% |
| `CN(Cc1ccccc1)CC(O)CN1CCOCC1` (configuration not stated) | 18.6% |
| `Cn1c(=O)ccn(CC(=O)Nc2ncccc2O)c1=O` | -11.98% |
| `Cn1cnnc1CN1CCC(C2CCOCC2)CC1` | -6.388% |

Source: ChEMBL document CHEMBL3988442, “University of Dundee, Small-Polar-MMV Screening Library” (2021).